In this experiment the target is FLAG-RFX5 (UniProt P48382). The experiment can be described thus: co-IP; 293T cells co-transfected with FLAG-RFX5 and MED23-MYC plasmids; lysis in 1% NP-40, 10% glycerol, 135 mM NaCl, 20 mM Tris pH 8.0; anti-Flag beads, 4 °C overnight; Western blot. For orientation: A western blot detects proteins with antibodies after separation by electrophoresis.

By UniProt entry, the sequences of proteins in these tests, tags left out.
UniProt P48382: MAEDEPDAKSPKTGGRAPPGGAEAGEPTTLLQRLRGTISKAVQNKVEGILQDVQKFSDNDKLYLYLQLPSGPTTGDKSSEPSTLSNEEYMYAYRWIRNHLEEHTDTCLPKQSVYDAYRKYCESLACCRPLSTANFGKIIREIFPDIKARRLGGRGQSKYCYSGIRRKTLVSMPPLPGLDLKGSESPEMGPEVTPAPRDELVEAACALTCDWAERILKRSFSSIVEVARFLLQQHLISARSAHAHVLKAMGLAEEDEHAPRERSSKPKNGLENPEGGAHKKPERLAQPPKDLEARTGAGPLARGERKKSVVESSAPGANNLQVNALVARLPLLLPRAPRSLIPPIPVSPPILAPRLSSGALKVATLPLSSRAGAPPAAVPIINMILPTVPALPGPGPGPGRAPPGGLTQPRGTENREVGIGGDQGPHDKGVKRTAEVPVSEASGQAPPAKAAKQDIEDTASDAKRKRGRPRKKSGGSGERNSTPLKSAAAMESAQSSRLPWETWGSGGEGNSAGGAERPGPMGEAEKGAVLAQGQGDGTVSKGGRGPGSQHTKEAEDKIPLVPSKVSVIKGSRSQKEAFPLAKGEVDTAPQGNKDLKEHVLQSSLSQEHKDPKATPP

Results are given in words; binding and its absence hold for the method and conditions named. Binding seen in cells or lysates may run through a third protein. Some results given as binding are weak or reduced against the parent protein; the word gives no strength. Where a sequence is shown, tags or fusion partners need not be part of it.

B1: MED23-MYC (protein, UniProt Q9ULK4 1-1368)
chain: METQLQSIFEEVVKTEVIEEAFPGMFMDTPEDEKTKLISCLGAFRQFWGGLSQESHEQCIQWIVKFIHGQHSPKRISFLYDCLAMAVETGLLPPRLVCESLINSDTLEWERTQLWALTFKLVRKIIGGVDYKGVRDLLKVILEKILTIPNTVSSAVVQQLLAAREVIAYILERNACLLPAYFAVTEIRKLYPEGKLPHWLLGNLVSDFVDTFRPTARINSICGRCSLLPVVNNSGAICNSWKLDPATLRFPLKGLLPYDKDLFEPQTALLRYVLEQPYSRDMVCNMLGLNKQHKQRCPVLEDQLVDLVVYAMERSETEEKFDDGGTSQLLWQHLSSQLIFFVLFQFASFPHMVLSLHQKLAGRGLIKGRDHLMWVLLQFISGSIQKNALADFLPVMKLFDLLYPEKEYIPVPDINKPQSTHAFAMTCIWIHLNRKAQNDNSKLQIPIPHSLRLHHEFLQQSLRNKSLQMNDYKIALLCNAYSTNSECFTLPMGALVETIYGNGIMRIPLPGTNCMASGSITPLPMNLLDSLTVHAKMSLIHSIATRVIKLAHAKSSVALAPALVETYSRLLVYMEIESLGIKGFISQLLPTVFKSHAWGILHTLLEMFSYRMHHIQPHYRVQLLSHLHTLAAVAQTNQNQLHLCVESTALRLITALGSSEVQPQFTRFLSDPKTVLSAESEELNRALILTLARATHVTDFFTGSDSIQGTWCKDILQTIMSFTPHNWASHTLSCFPGPLQAFFKQNNVPQESRFNLKKNVEEEYRKWKSMSNENDIITHFSMQGSPPLFLCLLWKMLLETDHINQIGYRVLERIGARALVAHVRTFADFLVYEFSTSAGGQQLNKCIEILNDMVWKYNIVTLDRLILCLAMRSHEGNEAQVCYFIIQLLLLKPNDFRNRVSDFVKENSPEHWLQNDWHTKHMNYHKKYPEKLYFEGLAEQVDPPVQIQSPYLPIYFGNVCLRFLPVFDIVIHRFLELLPVSKSLETLLDHLGGLYKFHDRPVTYLYNTLHYYEMHLRDRAFLKRKLVHAIIGSLKDNRPQGWCLSDTYLKCAMNAREENPWVPDDTYYCRLIGRLVDTMAGKSPGPFPNCDWRFNEFPNPAAHALHVTCVELMALAVSGKEVGNALLNVVLKSQPLVPRENITAWMNAIGLIITALPEPYWIVLHDRIVSVISSPSLTSETEWVGYPFRLFDFTACHQSYSEMSCSYTLALAHAVWHHSSIGQLSLIPKFLTEVLLPIVKTEFQLLYVYHLVGPFLQRFQQERTRCMIEIGVAFYDMLLNVDQCSTHLNYMDPICDFLYHMKYMFTGDSVKEQVEKIICNLKPALKLRLRFITHISKMEPAAVPPQAMNSGSPAPQSNQVPVSLPVTQ
As to B1, the binding result is “binds”.

The record behind these values is article PMC12848160.
